In test [1] the target is SUPT3H (human (endogenous in HCT116)) (UniProt O75486). The test can be described thus: co-IP; SUPT3H or EP400 immunoprecipitated from nuclear extracts of TELO2^AID HCT116 cells treated with auxin (TELO2 depletion) or NaOH for 24 hr; antibody-bound protein G-Sepharose beads overnight at 4°C; washes in 20 mM Tris-HCl pH 7.5, 150 mM NaCl, 0.1% Triton; immunoblot; beads-only control. On the technique in general: Immunoblotting shows a protein as a band on a membrane.

By UniProt entry, the sequences of proteins in these tests, tags left out.
UniProt O75486: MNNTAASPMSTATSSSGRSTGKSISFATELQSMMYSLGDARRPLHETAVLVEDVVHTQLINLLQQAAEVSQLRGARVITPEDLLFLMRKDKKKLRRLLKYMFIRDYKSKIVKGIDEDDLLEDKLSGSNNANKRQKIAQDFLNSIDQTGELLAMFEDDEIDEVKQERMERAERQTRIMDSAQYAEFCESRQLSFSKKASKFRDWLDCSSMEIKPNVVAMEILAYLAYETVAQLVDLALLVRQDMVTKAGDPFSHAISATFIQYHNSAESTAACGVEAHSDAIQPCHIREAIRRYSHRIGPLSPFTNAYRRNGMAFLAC
UniProt Q9Y4A5: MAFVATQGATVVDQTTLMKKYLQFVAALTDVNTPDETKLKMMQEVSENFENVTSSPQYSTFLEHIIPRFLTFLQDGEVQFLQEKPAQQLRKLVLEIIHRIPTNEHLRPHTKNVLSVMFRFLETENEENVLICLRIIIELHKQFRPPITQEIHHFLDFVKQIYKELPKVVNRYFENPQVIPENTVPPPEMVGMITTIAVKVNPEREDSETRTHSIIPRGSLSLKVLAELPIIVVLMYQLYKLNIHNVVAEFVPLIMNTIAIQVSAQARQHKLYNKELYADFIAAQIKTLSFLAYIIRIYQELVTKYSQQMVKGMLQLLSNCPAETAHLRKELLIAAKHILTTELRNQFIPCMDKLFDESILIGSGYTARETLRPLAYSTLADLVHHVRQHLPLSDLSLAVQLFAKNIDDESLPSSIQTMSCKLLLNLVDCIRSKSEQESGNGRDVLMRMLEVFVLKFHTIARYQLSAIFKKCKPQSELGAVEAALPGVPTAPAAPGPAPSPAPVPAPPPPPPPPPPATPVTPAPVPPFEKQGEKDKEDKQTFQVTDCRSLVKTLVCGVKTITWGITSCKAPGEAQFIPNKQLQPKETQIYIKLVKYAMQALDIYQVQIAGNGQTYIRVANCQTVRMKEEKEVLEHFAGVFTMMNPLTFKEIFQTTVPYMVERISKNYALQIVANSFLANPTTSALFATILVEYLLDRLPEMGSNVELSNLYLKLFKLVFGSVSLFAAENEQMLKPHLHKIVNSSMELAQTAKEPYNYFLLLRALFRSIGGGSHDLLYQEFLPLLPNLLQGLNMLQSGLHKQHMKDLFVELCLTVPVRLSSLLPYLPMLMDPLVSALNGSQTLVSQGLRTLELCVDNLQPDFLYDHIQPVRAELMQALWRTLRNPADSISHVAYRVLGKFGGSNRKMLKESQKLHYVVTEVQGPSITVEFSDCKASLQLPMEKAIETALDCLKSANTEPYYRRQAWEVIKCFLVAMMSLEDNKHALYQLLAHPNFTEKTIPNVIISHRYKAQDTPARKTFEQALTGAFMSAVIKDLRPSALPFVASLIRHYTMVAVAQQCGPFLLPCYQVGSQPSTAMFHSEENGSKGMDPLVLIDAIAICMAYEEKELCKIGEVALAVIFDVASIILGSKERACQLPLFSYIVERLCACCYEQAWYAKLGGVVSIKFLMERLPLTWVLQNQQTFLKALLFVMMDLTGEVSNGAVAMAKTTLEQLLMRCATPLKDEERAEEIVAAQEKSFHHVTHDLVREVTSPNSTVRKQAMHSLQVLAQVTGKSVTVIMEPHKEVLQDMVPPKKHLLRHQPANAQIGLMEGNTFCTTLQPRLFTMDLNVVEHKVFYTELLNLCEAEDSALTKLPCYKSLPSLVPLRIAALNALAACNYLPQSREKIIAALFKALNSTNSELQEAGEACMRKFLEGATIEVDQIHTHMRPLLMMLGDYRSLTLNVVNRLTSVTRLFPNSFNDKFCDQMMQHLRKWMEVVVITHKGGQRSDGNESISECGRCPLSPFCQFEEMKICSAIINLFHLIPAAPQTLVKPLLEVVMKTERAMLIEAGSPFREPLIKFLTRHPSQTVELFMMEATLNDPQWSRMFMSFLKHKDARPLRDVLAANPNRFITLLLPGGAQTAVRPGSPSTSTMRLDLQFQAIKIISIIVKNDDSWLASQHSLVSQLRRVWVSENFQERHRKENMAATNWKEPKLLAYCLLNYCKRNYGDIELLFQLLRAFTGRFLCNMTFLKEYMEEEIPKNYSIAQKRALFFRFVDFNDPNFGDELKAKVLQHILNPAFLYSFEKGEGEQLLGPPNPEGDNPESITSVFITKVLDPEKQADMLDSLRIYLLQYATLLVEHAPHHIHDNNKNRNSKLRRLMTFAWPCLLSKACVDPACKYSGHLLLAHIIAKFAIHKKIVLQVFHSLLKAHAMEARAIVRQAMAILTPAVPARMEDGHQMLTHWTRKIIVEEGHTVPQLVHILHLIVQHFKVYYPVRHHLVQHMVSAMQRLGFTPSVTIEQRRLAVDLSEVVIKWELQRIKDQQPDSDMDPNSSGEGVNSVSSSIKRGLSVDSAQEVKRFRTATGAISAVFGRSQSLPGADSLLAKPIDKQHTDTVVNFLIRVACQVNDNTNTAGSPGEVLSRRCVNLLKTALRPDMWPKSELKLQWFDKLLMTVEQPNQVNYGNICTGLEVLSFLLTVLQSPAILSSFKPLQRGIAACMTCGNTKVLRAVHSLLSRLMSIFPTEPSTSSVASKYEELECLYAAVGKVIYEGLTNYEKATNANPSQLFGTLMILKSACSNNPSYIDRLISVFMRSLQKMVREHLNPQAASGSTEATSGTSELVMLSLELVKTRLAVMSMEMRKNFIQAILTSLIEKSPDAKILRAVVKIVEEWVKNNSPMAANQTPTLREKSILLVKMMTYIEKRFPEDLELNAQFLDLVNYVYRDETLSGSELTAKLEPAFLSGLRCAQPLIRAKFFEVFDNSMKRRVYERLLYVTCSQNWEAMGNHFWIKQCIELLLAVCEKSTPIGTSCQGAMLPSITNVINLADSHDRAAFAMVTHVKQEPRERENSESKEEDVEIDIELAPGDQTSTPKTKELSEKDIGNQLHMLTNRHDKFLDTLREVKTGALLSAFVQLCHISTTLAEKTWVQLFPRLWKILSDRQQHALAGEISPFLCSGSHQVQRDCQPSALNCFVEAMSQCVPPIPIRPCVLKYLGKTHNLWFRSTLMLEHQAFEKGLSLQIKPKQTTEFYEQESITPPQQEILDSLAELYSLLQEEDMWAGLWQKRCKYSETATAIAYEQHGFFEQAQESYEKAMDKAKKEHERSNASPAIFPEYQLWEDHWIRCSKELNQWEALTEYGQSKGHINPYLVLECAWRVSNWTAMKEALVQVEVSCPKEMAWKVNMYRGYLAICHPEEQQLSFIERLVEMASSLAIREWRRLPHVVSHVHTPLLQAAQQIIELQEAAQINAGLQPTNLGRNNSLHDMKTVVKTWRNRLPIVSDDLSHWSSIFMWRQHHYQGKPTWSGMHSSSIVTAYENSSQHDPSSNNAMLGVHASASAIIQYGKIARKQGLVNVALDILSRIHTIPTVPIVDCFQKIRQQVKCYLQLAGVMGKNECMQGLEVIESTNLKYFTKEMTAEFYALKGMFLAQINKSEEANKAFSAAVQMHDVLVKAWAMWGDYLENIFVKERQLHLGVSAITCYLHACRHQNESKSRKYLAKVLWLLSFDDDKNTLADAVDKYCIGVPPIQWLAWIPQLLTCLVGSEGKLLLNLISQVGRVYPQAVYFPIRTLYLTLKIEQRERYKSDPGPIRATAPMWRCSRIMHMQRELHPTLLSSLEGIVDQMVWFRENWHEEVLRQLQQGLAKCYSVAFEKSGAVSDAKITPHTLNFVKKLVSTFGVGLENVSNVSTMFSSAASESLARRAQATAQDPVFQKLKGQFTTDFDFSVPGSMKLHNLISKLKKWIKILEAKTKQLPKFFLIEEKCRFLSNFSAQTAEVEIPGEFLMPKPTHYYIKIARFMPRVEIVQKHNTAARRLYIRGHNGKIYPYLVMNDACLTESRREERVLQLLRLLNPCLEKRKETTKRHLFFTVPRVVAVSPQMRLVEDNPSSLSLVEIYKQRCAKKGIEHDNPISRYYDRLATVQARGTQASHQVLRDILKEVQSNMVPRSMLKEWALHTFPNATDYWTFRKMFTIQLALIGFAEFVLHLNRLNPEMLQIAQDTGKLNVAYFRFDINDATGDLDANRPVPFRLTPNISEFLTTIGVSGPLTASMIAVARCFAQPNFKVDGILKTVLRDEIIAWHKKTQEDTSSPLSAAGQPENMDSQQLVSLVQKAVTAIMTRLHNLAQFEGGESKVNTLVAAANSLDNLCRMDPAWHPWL
UniProt O94864: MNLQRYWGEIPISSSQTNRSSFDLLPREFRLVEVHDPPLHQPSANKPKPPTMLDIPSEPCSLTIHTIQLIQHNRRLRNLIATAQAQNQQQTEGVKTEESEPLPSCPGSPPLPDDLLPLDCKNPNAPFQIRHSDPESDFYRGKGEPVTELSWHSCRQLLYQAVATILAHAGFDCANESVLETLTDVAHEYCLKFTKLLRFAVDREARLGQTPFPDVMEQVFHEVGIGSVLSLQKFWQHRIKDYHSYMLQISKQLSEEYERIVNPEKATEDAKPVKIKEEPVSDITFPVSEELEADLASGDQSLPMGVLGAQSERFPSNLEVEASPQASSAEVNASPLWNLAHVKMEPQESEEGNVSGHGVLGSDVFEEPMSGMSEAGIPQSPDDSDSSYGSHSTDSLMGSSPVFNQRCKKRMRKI
UniProt O75528: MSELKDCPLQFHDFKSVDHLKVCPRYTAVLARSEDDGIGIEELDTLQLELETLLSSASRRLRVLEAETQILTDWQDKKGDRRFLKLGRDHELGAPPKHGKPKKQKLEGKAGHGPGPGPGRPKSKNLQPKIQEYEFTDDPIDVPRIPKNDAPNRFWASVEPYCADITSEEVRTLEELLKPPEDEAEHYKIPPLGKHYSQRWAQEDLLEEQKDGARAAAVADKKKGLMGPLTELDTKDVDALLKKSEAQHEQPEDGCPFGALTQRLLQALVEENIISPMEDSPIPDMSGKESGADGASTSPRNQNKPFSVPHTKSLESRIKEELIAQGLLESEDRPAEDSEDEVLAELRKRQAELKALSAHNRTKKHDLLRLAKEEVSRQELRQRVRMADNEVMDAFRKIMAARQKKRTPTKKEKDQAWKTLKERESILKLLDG
UniProt Q96BN2: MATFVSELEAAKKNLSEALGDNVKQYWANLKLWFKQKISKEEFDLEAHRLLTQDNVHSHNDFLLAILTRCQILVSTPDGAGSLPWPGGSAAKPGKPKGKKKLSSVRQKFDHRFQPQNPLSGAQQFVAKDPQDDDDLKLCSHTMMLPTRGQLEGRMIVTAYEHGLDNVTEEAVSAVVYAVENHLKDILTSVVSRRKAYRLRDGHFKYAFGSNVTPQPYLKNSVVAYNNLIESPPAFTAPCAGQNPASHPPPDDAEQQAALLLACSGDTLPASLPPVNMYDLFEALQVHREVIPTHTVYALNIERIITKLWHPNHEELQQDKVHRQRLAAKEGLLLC
UniProt Q12962: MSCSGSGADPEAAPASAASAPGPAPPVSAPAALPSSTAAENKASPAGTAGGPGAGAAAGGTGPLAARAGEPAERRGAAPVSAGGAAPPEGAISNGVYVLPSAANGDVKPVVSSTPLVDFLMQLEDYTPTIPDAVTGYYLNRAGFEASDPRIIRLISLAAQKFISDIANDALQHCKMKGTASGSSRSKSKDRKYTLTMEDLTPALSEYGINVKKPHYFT
UniProt Q96ES7: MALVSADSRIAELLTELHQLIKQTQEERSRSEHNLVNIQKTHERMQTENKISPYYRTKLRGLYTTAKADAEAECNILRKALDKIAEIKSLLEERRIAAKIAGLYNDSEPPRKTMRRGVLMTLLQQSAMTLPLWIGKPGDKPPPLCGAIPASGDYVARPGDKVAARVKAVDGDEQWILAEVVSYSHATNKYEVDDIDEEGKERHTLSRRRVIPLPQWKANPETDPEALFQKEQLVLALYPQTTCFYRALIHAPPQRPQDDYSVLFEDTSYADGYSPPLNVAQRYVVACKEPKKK

Test [2] deals with EP400 (human (endogenous in HCT116)) (UniProt Q96L91). The description is as above.
Test [3] has as its target TRRAP (human (endogenous in HCT116)) (UniProt Q9Y4A5). The experiment in a line: co-IP; TRRAP immunoprecipitated from the cytoplasmic extract of TELO2^AID HCT116 cells treated with auxin or NaOH for 48 hr; antibody-bound protein G-Sepharose beads overnight at 4°C; washes in 20 mM Tris-HCl pH 7.5, 150 mM NaCl, 0.1% Triton; immunoblot; beads-only control.

The values below come from paper PMC8926402.

No constants are given. Whether binding was seen depends on the method and setting. In cells and extracts the contact can be indirect. Some entries that bind do so weakly or less than the wild type.

In the case of SUPT7L (from UniProt O94864 1-414), in test [1], the binding result is “binds”.
Take TADA3 (from UniProt O75528 1-432): the binding entry in test [1] is “binds”.
With TRRAP (from UniProt Q9Y4A5 1-3859), the binding result in test [2] is on record as “binds”.
TELO2^AID (from UniProt Q9Y4R8 1-837): in test [3], the binding result is given as “binds”.
Take TADA1 (from UniProt Q96BN2 1-335): the binding entry in test [1] is listed as “binds”.
Take TAF10 (from UniProt Q12962 1-218): the binding entry in test [1] was “binds”.
For the substance SGF29 (from UniProt Q96ES7 1-293), the binding entry in test [1] is “binds”.
